Source: paper PMC9649962, “Early diagnosis of bladder cancer by photoacoustic imaging of tumor-targeted gold nanorods” (Photoacoustics, 2022)
No constants are given. Whether binding was seen depends on the method and setting.

Protein sequences, listed by entry. Tags and fused reporters are not part of them. Lines headed by an entry give the natural chain unless they say otherwise; changes in a name come on top.
UniProt P11688: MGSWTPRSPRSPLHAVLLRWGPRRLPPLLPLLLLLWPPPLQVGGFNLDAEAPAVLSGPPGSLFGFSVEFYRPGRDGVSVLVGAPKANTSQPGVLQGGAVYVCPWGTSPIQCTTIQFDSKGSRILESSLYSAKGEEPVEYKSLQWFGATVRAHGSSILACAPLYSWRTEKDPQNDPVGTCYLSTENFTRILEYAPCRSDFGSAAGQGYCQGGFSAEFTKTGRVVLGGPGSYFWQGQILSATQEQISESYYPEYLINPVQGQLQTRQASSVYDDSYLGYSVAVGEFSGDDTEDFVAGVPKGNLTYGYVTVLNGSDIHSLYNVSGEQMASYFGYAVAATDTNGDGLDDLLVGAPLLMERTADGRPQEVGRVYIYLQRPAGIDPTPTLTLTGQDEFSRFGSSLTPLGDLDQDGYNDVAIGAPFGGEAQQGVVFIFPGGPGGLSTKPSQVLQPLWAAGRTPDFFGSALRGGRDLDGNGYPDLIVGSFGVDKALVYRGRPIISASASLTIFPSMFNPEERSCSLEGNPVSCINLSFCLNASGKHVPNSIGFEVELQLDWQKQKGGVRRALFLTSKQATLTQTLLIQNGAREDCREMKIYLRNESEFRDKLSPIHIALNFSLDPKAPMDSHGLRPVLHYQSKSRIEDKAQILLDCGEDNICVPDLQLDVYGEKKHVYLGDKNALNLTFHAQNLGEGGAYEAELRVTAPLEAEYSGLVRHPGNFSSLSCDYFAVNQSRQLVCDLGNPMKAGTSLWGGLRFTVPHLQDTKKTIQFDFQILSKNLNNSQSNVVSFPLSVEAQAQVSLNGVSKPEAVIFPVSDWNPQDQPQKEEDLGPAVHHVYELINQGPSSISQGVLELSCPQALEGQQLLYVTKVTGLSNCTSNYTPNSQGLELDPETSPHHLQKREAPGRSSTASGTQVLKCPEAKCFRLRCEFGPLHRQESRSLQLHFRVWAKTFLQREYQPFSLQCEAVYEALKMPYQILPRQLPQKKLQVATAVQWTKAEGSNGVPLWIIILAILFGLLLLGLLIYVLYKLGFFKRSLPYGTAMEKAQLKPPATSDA
UniProt P09055: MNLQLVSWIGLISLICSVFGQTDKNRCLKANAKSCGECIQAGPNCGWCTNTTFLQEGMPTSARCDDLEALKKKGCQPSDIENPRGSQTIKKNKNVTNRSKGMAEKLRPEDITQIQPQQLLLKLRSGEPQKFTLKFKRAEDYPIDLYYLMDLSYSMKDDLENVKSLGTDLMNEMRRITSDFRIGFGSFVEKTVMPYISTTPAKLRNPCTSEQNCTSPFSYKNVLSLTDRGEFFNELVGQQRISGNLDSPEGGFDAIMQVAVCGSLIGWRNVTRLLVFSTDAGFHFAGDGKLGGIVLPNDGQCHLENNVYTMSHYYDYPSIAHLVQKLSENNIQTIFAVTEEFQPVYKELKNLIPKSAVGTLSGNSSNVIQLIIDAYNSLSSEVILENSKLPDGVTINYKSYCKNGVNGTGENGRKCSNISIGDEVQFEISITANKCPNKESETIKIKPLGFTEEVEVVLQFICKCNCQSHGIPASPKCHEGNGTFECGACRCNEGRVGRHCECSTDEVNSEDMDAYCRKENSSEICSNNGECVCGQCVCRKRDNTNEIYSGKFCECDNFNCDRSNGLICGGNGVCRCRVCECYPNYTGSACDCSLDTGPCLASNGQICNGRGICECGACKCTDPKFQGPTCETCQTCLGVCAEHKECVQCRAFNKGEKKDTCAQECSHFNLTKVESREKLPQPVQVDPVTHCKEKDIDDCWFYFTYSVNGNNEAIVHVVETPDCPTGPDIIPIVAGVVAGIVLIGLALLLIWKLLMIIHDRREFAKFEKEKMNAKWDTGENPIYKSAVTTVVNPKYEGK
UniProt P08648: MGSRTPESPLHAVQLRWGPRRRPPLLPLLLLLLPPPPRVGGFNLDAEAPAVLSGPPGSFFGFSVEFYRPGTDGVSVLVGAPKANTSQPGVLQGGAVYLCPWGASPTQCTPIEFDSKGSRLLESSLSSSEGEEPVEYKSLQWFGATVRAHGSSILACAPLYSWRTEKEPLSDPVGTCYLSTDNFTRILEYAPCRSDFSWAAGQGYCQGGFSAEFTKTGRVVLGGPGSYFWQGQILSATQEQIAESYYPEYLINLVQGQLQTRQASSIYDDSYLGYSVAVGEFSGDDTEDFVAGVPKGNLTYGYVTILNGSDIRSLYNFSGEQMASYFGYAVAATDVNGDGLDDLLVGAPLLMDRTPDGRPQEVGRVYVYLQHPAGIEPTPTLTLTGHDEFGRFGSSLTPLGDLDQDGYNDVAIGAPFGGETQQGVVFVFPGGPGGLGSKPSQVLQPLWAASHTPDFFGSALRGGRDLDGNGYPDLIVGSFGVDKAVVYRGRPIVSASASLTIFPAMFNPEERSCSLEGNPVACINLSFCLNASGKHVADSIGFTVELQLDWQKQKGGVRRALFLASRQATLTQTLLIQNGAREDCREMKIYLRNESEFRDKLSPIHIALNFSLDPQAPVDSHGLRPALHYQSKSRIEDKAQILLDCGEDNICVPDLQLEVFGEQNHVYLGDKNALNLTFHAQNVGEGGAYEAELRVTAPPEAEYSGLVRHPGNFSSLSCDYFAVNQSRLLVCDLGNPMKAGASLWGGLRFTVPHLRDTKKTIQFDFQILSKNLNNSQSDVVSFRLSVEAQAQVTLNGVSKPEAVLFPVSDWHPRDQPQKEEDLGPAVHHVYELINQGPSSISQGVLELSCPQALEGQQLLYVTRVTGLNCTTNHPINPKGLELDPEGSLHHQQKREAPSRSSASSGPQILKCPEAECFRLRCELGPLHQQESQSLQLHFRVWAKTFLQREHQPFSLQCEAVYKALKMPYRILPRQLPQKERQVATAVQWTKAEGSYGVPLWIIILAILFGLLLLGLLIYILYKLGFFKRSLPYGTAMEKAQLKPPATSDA
UniProt P05556: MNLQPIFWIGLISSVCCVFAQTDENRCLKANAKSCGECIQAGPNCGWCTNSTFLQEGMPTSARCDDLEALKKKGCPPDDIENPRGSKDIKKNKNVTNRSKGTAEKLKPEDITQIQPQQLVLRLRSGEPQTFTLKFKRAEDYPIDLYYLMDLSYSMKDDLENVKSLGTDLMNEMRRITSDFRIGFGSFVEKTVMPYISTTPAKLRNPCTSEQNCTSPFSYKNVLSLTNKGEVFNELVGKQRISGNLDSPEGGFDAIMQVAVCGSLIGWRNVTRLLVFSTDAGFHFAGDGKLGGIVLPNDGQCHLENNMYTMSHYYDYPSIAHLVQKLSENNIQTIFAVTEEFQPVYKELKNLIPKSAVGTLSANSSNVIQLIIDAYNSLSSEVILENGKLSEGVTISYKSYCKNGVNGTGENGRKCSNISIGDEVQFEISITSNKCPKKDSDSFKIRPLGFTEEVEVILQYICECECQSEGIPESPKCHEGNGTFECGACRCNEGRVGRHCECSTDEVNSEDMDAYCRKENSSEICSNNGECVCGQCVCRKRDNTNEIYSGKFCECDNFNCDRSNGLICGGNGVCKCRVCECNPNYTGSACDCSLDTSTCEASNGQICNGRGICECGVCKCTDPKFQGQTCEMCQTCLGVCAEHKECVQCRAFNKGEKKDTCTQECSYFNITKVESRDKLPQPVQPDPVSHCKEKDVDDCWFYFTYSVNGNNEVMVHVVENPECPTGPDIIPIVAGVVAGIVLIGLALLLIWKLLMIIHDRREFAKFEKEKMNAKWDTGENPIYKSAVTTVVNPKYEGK

Legend:
[1] = biological target: α5β1 integrin on murine bladder cancer MB49-Luc cells (mouse (endogenous in MB49-Luc)) (UniProt P11688+P09055); experiment: flow cytometry on cells; detached MB49-Luc or 5637 cells with Iso4- or ARA-Qdot (30–0 nM) in 25 mM Hepes pH 7.4, 150 mM sodium chloride, 1 mM magnesium chloride, 1 mM manganese chloride, 1% BSA, 2 h at 37 °C; washed, fixed; only the binder purified
[2] = biological target: T1, α5β1 integrin on human bladder cancer 5637 cells (human (endogenous in 5637)) (UniProt P08648+P05556); experiment: as above
[3] = biological target: T1, α5β1 integrin on human bladder cancer 5637 cells (human (endogenous in 5637)); experiment: fluorescence microscopy of Qdot bound to living cells (Cellomics ArrayScan); living 5637 cells grown in 96-well plates, Iso4-Qdot or ARA-Qdot 30 nM in binding buffer-1, 2 h at 37 °C, 5% CO2; washed, fixed; only the binder purified

Measured: binding

CGARAG (head-to-tail cyclized; coupled to Qdot605 ITK Amino PEG nanoparticles) [ARA-Qdot (ARA, c(CGARAG), coupled to Qdot605 ITK Amino PEG quantum dots)]
no binding (tested: 30 nM): all assays above
